Values from PubChem BioAssay AID1259254 (NCATS, 2017).
Screen: 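Genome-wide screen for genes that prevent DNA re-replication in cancer cells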 (primary screen). System: human HCT116 colorectal cancer cells. Knock-down reagent: single siRNA against human genes. Timing: 3 days. Measurement: 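Nuclei stained with Hoechst and imaged; cell-cycle phase assigned by DNA content; G2 share scaled per plate, non-targeting siRNA 0%, GMNN siRNA 100%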. Direction: G2 robust z-score: higher = more G2 cells, more excess DNA replication. Call rule: 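Active siRNAs have a G2 robust z of 5 or more median absolute deviations over the median, which in these data means about 38% or higher of GMNN control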.
The whole screen tested about 59,000 reagents; below is a random part of them. About 1,550 of them (2.6%) were called active. 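G2 share is only a proxy for re-replication; each gene was hit by three separate siRNAs, and active genes were retested.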 Further read-outs or replicates are left out here. The record does not give: the amount of reagent.

no.	Gene	PubChem SID	G2 robust z-score	call
1	CRNKL1	SID160740645	0.607	inactive
2	CRNKL1	SID160740646	0.158	inactive
3	CRNKL1	SID160740647	0.438	inactive
4	LINC00951	SID160767222	-0.546	inactive
5	LINC00951	SID160767224	-0.776	inactive
6	LINC00951	SID160767225	0.3	inactive
7	CFAP141	SID160725206	-0.915	inactive
8	CFAP141	SID160765967	0.939	inactive
9	CFAP141	SID160765968	-0.417	inactive
10	GBP7	SID160765942	-0.203	inactive
11	GBP7	SID160765943	0.919	inactive
12	GBP7	SID160765944	0.754	inactive
13	PNMA1	SID160721788	-0.524	inactive
14	PNMA1	SID160721789	-0.743	inactive
15	PNMA1	SID160721790	-0.0854	inactive
16	EFNA1	SID160758481	0.713	inactive
17	EFNA1	SID160758491	0.153	inactive
18	EFNA1	SID160758502	0.397	inactive
19	CDX1	SID160741426	-0.356	inactive
20	CDX1	SID160741437	0.487	inactive
21	CDX1	SID160741448	1.52	inactive
22	ARHGAP31	SID160746157	0.317	inactive
23	ARHGAP31	SID160746158	0.0642	inactive
24	ARHGAP31	SID160746159	3.06	inactive
25	PRG2	SID160714876	0.444	inactive
26	PRG2	SID160714877	-0.296	inactive
27	PRG2	SID160714878	0.00498	inactive
28	RPS18P5	SID160773868	1.15	inactive
29	RPS18P5	SID160773869	-0.234	inactive
30	RPS18P5	SID160773870	-0.505	inactive
31	NBEAL2	SID160735747	0.506	inactive
32	NBEAL2	SID160735748	0.468	inactive
33	NBEAL2	SID160735749	-0.167	inactive
34	ZSCAN10	SID160752863	2.9	inactive
35	ZSCAN10	SID160752864	-1.4	inactive
36	ZSCAN10	SID160752865	-0.192	inactive
37	MSL3B	SID160759112	-0.458	inactive
38	MSL3B	SID160759113	0.464	inactive
39	MSL3B	SID160759114	-0.0205	inactive
40	SLED1	SID160733797	0.368	inactive
41	SLED1	SID160733798	0.665	inactive
42	SLED1	SID160768762	-0.76	inactive
43	KBTBD3	SID160758070	-0.712	inactive
44	KBTBD3	SID160758071	-0.349	inactive
45	KBTBD3	SID160758072	-0.285	inactive
46	LCN9	SID160731195	-0.937	inactive
47	LCN9	SID160766769	0.304	inactive
48	LCN9	SID160766770	-0.603	inactive
49	NUPR1	SID160737980	-0.611	inactive
50	NUPR1	SID160737981	0.0383	inactive
51	NUPR1	SID160737982	0.0795	inactive
52	C1orf216	SID160756667	-0.33	inactive
53	C1orf216	SID160756668	2.62	inactive
54	C1orf216	SID160756669	0.143	inactive
55	LIG4	SID160776615	0.867	inactive
56	LIG4	SID160776617	-0.253	inactive
57	LIG4	SID160776618	-0.998	inactive
58	MACROD1	SID160738953	1.84	inactive
59	MACROD1	SID160738954	3.85	inactive
60	MACROD1	SID160738956	0.0828	inactive
61	CREBL2	SID160748053	1.65	inactive
62	CREBL2	SID160748064	-1.13	inactive
63	CREBL2	SID160748075	0.0641	inactive
64	RASEF	SID160759604	1.31	inactive
65	RASEF	SID160759605	-1.12	inactive
66	RASEF	SID160759606	-0.381	inactive
67	TGFB2-AS1	SID160734357	-0.327	inactive
68	TGFB2-AS1	SID160771827	-0.357	inactive
69	TGFB2-AS1	SID160771828	0.681	inactive
70	FEZ2	SID160722676	0.228	inactive
71	FEZ2	SID160722677	-0.693	inactive
72	FEZ2	SID160722678	5.67	active
73	CXADR	SID160750926	-0.609	inactive
74	CXADR	SID160750934	1.09	inactive
75	CXADR	SID160750945	-0.323	inactive
76	TNFSF4	SID160718474	0.469	inactive
77	TNFSF4	SID160718475	0.924	inactive
78	TNFSF4	SID160718476	5.3	active
79	SLC38A12	SID160742361	7.44	active
80	SLC38A12	SID160742363	0.655	inactive
81	SLC38A12	SID160742364	2.5	inactive
82	KLK14	SID160739572	-1.87	inactive
83	KLK14	SID160739573	-0.996	inactive
84	KLK14	SID160739574	-0.261	inactive
85	ADAMTSL4	SID160741817	3.92	inactive
86	ADAMTSL4	SID160741818	0.126	inactive
87	ADAMTSL4	SID160741819	0.247	inactive

Hits, among the entries above:
Gene	PubChem SID	G2 robust z-score	call
FEZ2	SID160722678	5.67	active
TNFSF4	SID160718476	5.3	active
SLC38A12	SID160742361	7.44	active
